One assay relates to HEK293 WT BDD-FVIII-Gluc. Put plainly: secreted FVIII-Gluc luciferase Z-score vs DMSO control; higher = more FVIII-Gluc secretion. The settings on record: 5 µM; 24 h.
Assay [1] relates to HEK293 p.N1941S BDD-FVIII-Gluc. Described as above. The following applies: 5 µM; 24 h.

Structures can show the parent of a compound that is named as a salt. The list shows a part of the results. Part of the spread comes from offsets between plates or batches.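 The cells are HEK293 lines stably expressing B-domain-deleted factor VIII fused to Gaussia luciferase, either wild type or a misfolding-prone missense mutant. Each score is mean luminescence from triplicate wells minus the DMSO mean, divided by the DMSO standard deviation; a score of 2 or more counts as a hit, and low scores may reflect lower secretion or poorer cell viability.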

On to `O=C(O)CCCN1CCC(O[C@@H](c2ccc(Cl)cc2)c2ccccn2)CC1` [Bepotastine Besilate], for which the “secreted FVIII-Gluc luciferase Z-score” value is inactive: -0.634 in the assay with HEK293 WT BDD-FVIII-Gluc and inactive: -0.246 in assay [1].
The corresponding values for `CN(C)c1cc(NC(=O)CNC(C)(C)C)c(O)c2c1CC1CC3C(N(C)C)C(=O)C(C(N)=O)=C(O)C3(O)C(=O)C1=C2O` (configuration not stated) [Tigecycline] are inactive: -2.48 and inactive: -0.877.
In the same order, the values of `C[C@@H]1CN(c2c(F)c(N)c3c(=O)c(C(=O)O)cn(C4CC4)c3c2F)C[C@H](C)N1` [Sparfloxacin] are inactive: -2.48 and inactive: -0.647.
In the same order, the values of `C[N+]1(C)[C@@H]2CC[C@H]1C[C@@H](OC(=O)C(O)c1ccccc1)C2` (some centres not stated) [Homatropine Methylbromide] are inactive: -0.166 and inactive: 0.666.
On to `Nc1ccc(C(=O)NCC(=O)O)cc1` [Sodium 4-aminohippurate Hydrate], for which the “secreted FVIII-Gluc luciferase Z-score” value in the assay with HEK293 WT BDD-FVIII-Gluc is active: 4.62; in assay [1], active: 3.45.
In the same order, the values of `CCc1ccc(CCOc2ccc(CC3SC(=O)NC3=O)cc2)nc1` (configuration not stated) [Pioglitazone hydrochloride (Actos)] are inactive: -1.04 and inactive: -2.6.
In the same order, the values of `Nc1nc2c(ncn2COCCO)c(=O)[nH]1` [Acyclovir (Aciclovir)] are inactive: 1.24 and inactive: 0.664.
The corresponding values for `OC[C@@H](O)[C@@H](O)[C@H](O)[C@@H](O)CO` [Sorbitol (Glucitol)] are inactive: 0.401 and inactive: -0.435.
Consider `CN1c2cc(O)c(N=NC(N)=O)cc2CC1S(=O)(=O)O` (configuration not stated) [Carbazochrome sodium sulfonate], for which the “secreted FVIII-Gluc luciferase Z-score” value in the assay with HEK293 WT BDD-FVIII-Gluc was inactive: 1.21; in assay [1] it was inactive: 0.117.
As for `COc1ccc2[nH]c([S+]([O-])Cc3ncc(C)c(OC)c3C)nc2c1` (configuration not stated) [Omeprazole (Prilosec)], the “secreted FVIII-Gluc luciferase Z-score” value in the assay on HEK293 WT BDD-FVIII-Gluc is inactive: -2.92; in assay [1] it was inactive: -0.905.
In the same order, the values of `CCn1cc(C(=O)O)c(=O)c2cc(F)c(N3CCN(C)CC3)cc21` [Pefloxacin mesylate] are inactive: 1.96 and inactive: -0.053.
The corresponding values for `CC(S)C(=O)NCC(=O)O` (configuration not stated) [Tiopronin (Thiola)] are inactive: -0.256 and inactive: -0.15.
Regarding `CSc1ccc2c(c1)N(CCC1CCCCN1C)c1ccccc1S2` (configuration not stated) [Thioridazine HCl], the results for the “secreted FVIII-Gluc luciferase Z-score” value (in the assay with HEK293 WT BDD-FVIII-Gluc; in assay [1]) were inactive: -3.77 and inactive: -1.69, respectively.
In the same order, the values of `COC(=O)C1=C(C#N)NC(C)=C(C(=O)OC(C)C)C1c1cccc([N+](=O)[O-])c1` (configuration not stated) [Nilvadipine (ARC029)] are inactive: -1.34 and inactive: -0.58.
In the same order, the values of `O=C(O)Cc1ccccc1Nc1c(Cl)cccc1Cl` [Diclofenac Potassium] are active: 2.21 and inactive: 0.537.
The corresponding values for `N=C(N)Nc1ccc(C(=O)Oc2ccc3cc(C(=N)N)ccc3c2)cc1` [Nafamostat mesylate] are inactive: -3.1 and inactive: 0.829.
Take `Oc1ccc(OC2CCCCO2)cc1` (configuration not stated) [Deoxyarbutin]: the “secreted FVIII-Gluc luciferase Z-score” value was inactive: 0.517 with HEK293 WT BDD-FVIII-Gluc and inactive: -1.59 in assay [1].
In the same order, the values of `N=C(N)c1ccc(N=NNc2ccc(C(=N)N)cc2)cc1` [Diminazene Aceturate] are inactive: 0.457 and inactive: 0.653.
The corresponding values for `NCCc1ccc(O)c(O)c1` [Dopamine hydrochloride (Inotropin)] are inactive: 1.61 and inactive: 0.536.
Regarding `CC(C)NCC(O)COc1ccc(COCCOC(C)C)cc1` (configuration not stated) [Bisoprolol fumarate], the entries for the “secreted FVIII-Gluc luciferase Z-score” value (in the assay on HEK293 WT BDD-FVIII-Gluc; in assay [1]) were inactive: -1.62 and inactive: 0.0555, respectively.
The corresponding values for `CN1CCC(=C2c3ccccc3C=Cc3ccccc32)CC1` [Cyproheptadine HCl (Periactin)] are inactive: -2.23 and inactive: -3.93.
Take `C[C@@]12C[C@@]3(O)O[C@@H](O1)[C@]1(COC(=O)c4ccccc4)[C@H]3C[C@@]12O[C@@H]1O[C@H](CO)[C@@H](O)[C@H](O)[C@H]1O` [Paeoniflorin]: the “secreted FVIII-Gluc luciferase Z-score” value in the assay on HEK293 WT BDD-FVIII-Gluc is inactive: 0.158; in assay [1], inactive: -1.36.
For the molecule `NC(=O)C(c1ccccc1)(c1ccccc1)[C@@H]1CCN(CCc2ccc3c(c2)CCO3)C1` [Darifenacin HBr], the “secreted FVIII-Gluc luciferase Z-score” value in the assay on HEK293 WT BDD-FVIII-Gluc is inactive: -0.846; in assay [1], inactive: -1.64.
In the same order, the values of `CCOC(=O)c1ncn2c1CN(C)C(=O)c1cc(F)ccc1-2` [Flumazenil] are inactive: -1.38 and inactive: 0.868.
`CS(=O)(=O)c1ccc(C(=O)Nc2ccc(Cl)c(-c3ccccn3)c2)c(Cl)c1` [Vismodegib (GDC-0449)]: the “secreted FVIII-Gluc luciferase Z-score” value in the assay with HEK293 WT BDD-FVIII-Gluc is inactive: 1.31; in assay [1] it was inactive: 0.914.
In the same order, the values of `CCC(C)(C)c1ccc(CC(C)CN2C[C@@H](C)O[C@@H](C)C2)cc1` (some centres not stated) [Amorolfine Hydrochloride] are inactive: 1.6 and inactive: 0.801.
The corresponding values for `CC(=O)O[C@H]1C[C@@H]2CC[C@@H]3[C@H](CC[C@@]4(C)[C@H]3C[C@H]([N+]3(C)CCCCC3)[C@@H]4OC(C)=O)[C@@]2(C)C[C@@H]1N1CCCCC1` [Vecuronium Bromide] are inactive: -3.63 and inactive: 0.0957.
The corresponding values for `Cc1ccc(NC(=O)c2ccc(CN3CCN(C)CC3)cc2)cc1Nc1nccc(-c2cccnc2)n1` [Imatinib (Gleevec)] are inactive: -3.22 and inactive: -1.99.
With `CNCCC(Oc1ccc(C(F)(F)F)cc1)c1ccccc1` (configuration not stated) [Fluoxetine  HCl], the “secreted FVIII-Gluc luciferase Z-score” value with HEK293 WT BDD-FVIII-Gluc was inactive: -2.31; in assay [1], inactive: 0.173.
In the same order, the values of `CNC[C@H](O)[C@@H](O)[C@H](O)[C@H](O)CO` [Meglumine] are inactive: 0.468 and inactive: 0.643.
In the same order, the values of `C=CCNC(N)=S` [Allylthiourea] are inactive: -0.787 and inactive: -0.16.
In the same order, the values of `COC(=O)N[C@H](C(=O)N[C@@H](Cc1ccccc1)[C@@H](O)CN(Cc1ccc(-c2ccccn2)cc1)NC(=O)[C@@H](NC(=O)OC)C(C)(C)C)C(C)(C)C` [Atazanavir sulfate] are inactive: -3.79 and inactive: -1.7.
Turning to `C[C@@](Cc1ccc(O)c(O)c1)(NN)C(=O)O` [Carbidopa], the “secreted FVIII-Gluc luciferase Z-score” value in the assay on HEK293 WT BDD-FVIII-Gluc is inactive: -3.05; in assay [1] it was inactive: -3.51.
The corresponding values for `CCCCOc1cc(C(=O)NCCN(CC)CC)c2ccccc2n1` [Dibucaine HCL] are inactive: -0.435 and inactive: 0.856.
For the molecule `CN(C/C=C/C#CC(C)(C)C)Cc1cccc2ccccc12` [Terbinafine hydrochloride (Lamisil)], the “secreted FVIII-Gluc luciferase Z-score” value was inactive: 0.109 in the assay with HEK293 WT BDD-FVIII-Gluc and inactive: -0.195 in assay [1].
In the same order, the values of `CCC(=O)OCC(=O)[C@@]1(OC(=O)CC)[C@@H](C)C[C@H]2[C@@H]3CCC4=CC(=O)C=C[C@]4(C)[C@@]3(F)[C@@H](O)C[C@@]21C` [Betamethasone Dipropionate] are active: 7.63 and active: 7.5.
In the same order, the values of `O=C(NC(Cc1cc(=O)[nH]c2ccccc12)C(=O)O)c1ccc(Cl)cc1` (configuration not stated) [Rebamipide] are inactive: -0.48 and inactive: 1.52.
In the same order, the values of `CC(C(=O)O)c1ccc(-c2ccccc2)c(F)c1` (configuration not stated) [Flurbiprofen (Ansaid)] are inactive: -1.4 and inactive: 0.0738.
On to `Cc1c(N(C)C)c(=O)n(-c2ccccc2)n1C` [Amidopyrine], for which the “secreted FVIII-Gluc luciferase Z-score” value in the assay on HEK293 WT BDD-FVIII-Gluc was inactive: 0.00679; in assay [1] it was inactive: -1.12.
Consider `CCc1oc2ccccc2c1C(=O)c1cc(Br)c(O)c(Br)c1` [Benzbromarone], for which the “secreted FVIII-Gluc luciferase Z-score” value with HEK293 WT BDD-FVIII-Gluc was inactive: -0.651; in assay [1], inactive: -0.643.
The corresponding values for `Clc1ccc(C(Cn2ccnc2)OCc2ccsc2Cl)c(Cl)c1` (configuration not stated) [Tioconazole] are inactive: -3.03 and inactive: -3.53.
For the molecule `Cc1nnc(NS(=O)(=O)c2ccc(N)cc2)s1` [Sulfamethizole (Proklar)], the entries for the “secreted FVIII-Gluc luciferase Z-score” value (in the assay with HEK293 WT BDD-FVIII-Gluc; in assay [1]) were inactive: -2.18 and inactive: -3.25, respectively.
In the same order, the values of `NC[C@H](O)c1ccc(O)c(O)c1` [Noradrenaline bitartrate monohydrate (Levophed)] are inactive: 0.493 and inactive: -0.131.
Consider `Cc1cc(C)nc(NS(=O)(=O)c2ccc(N)cc2)n1` [Sulfamethazine], for which the “secreted FVIII-Gluc luciferase Z-score” value is inactive: 0.189 with HEK293 WT BDD-FVIII-Gluc and inactive: -0.79 in assay [1].
As for `Nc1ccc(O)c(C(=O)O)c1` [Mesalamine (Lialda)], the “secreted FVIII-Gluc luciferase Z-score” value is inactive: -1.97 in the assay with HEK293 WT BDD-FVIII-Gluc and inactive: 0.312 in assay [1].
The corresponding values for `Cc1onc(-c2ccccc2Cl)c1C(=O)N[C@@H]1C(=O)N2[C@@H]1SC(C)(C)[C@@H]2C(=O)O` [Cloxacillin sodium (Cloxacap)] are inactive: 1.43 and inactive: -0.818.
The corresponding values for `CC(C)(C)CC(C)(C)c1ccc(O)c(Cc2ccc(Cl)cc2Cl)c1` [Clofoctol] are inactive: -1.51 and inactive: 1.48.
In the same order, the values of `O=C(O)CSCC(=O)NC1CCSC1=O` (configuration not stated) [Erdosteine] are inactive: -2.7 and inactive: -0.8.
As for `COc1ccccc1Oc1c(NS(=O)(=O)c2ccc(C(C)(C)C)cc2)nc(-c2ncccn2)nc1OCCO` [Bosentan], the “secreted FVIII-Gluc luciferase Z-score” value with HEK293 WT BDD-FVIII-Gluc was inactive: -2.93; in assay [1], inactive: -0.331.
In the same order, the values of `CCS(=O)(=O)CCn1c([N+](=O)[O-])cnc1C` [tinidazole] are inactive: -0.429 and inactive: 0.59.
In the same order, the values of `CC(C)(O)c1ccccc1CC[C@@H](SCC1(CC(=O)O)CC1)c1cccc(/C=C/c2ccc3ccc(Cl)cc3n2)c1` [Montelukast Sodium] are inactive: -0.721 and inactive: -1.34.
The corresponding values for `CN1C(C(=O)Nc2ccccn2)=C(O)c2sc(Cl)cc2S1(=O)=O` [Lornoxicam (Xefo)] are inactive: -1.84 and inactive: -2.47.
On to `Cc1cc(NS(=O)(=O)c2ccc(N)cc2)no1` [Sulfamethoxazole], for which the entries for the “secreted FVIII-Gluc luciferase Z-score” value (in the assay with HEK293 WT BDD-FVIII-Gluc; in assay [1]) were inactive: -0.617 and inactive: 0.605, respectively.
The corresponding values for `CN(C)CCCN1c2ccccc2CCc2ccccc21` [Imipramine HCl] are inactive: -0.903 and inactive: -0.0789.
Turning to `Cn1cnc([N+](=O)[O-])c1Sc1ncnc2[nH]cnc12` [Azathioprine (Azasan, Imuran)], the “secreted FVIII-Gluc luciferase Z-score” value was inactive: -5.32 in the assay with HEK293 WT BDD-FVIII-Gluc and inactive: -1.69 in assay [1].
Regarding `CC(C)OC(=O)C(C(=O)OC(C)C)=C1SC=CS1` [Malotilate], the “secreted FVIII-Gluc luciferase Z-score” value is inactive: 0.33 in the assay with HEK293 WT BDD-FVIII-Gluc and inactive: -2.82 in assay [1].

Source of the values: the supplement of paper PMC12024529.
